Laboratory results reported in PubChem BioAssay AID651640 (Broad Institute, 2012).
The campaign covered roughly 350,000 compounds. About 6,000 (1.7%) were called active. The shares of active, inactive and inconclusive entries below differ from those in the screen. Rule as the data show it: active = CPE inhibition above about 20% (passing the limit was not always enough); inconclusive = no clear call, values can overlap the other calls; tested in BHK-21 cells.

assay: protection of cells from dengue 2 killing – plate reader, single concentration, primary screen (AID 651640); conditions: DENV2-infected cells, cytopathic effect rescue, at 9.99 µM, hits give high values;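 also: 0% = median of neutral control wells and 100% = median of positive control wells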

Structure (SMILES)	CPE inhibition
O=C(NCCc1ccc(Cl)cc1)c1cc(=O)[nH]c2ccccc12	inconclusive: 31.2%
Cc1noc(C)c1S(=O)(=O)Nc1cccc2c1O[C@H](CN(C)Cc1ccc3c(c1)OCO3)[C@H](C)CN([C@@H](C)CO)C2=O	inconclusive: 44.4%
OC[C@@H]1CN(Cc2ccc(F)cc2)C[C@H](n2cnc3c(NC4CCCC4)ncnc32)O1	inconclusive: 51.7%
O=C(C[C@H]1C[C@H]2c3cc(NC(=O)Nc4ccccc4F)ccc3O[C@H]2[C@@H](CO)O1)NCc1ccc(Oc2ccccc2)cc1	inactive: -5.79%
COc1cccc(OC)c1C(=O)Nc1cccc(-n2cnnn2)c1	inconclusive: 24.2%
CCOc1ccccc1NC(=S)NC(=O)c1ccco1	inconclusive: 65.1%
O=C1CCC(C(=O)OCC(=O)Nc2ccccc2Br)=NN1	inconclusive: 35.9%
COc1ccc(CN(C)C[C@@H]2Oc3ccc(N(C)C)cc3CC(=O)N([C@@H](C)CO)C[C@@H]2C)cc1	inconclusive: 21.8%
COc1ccc(C(=O)N/C(=C\c2cn(S(=O)(=O)N(C)C)c3ccccc23)C(=O)NCCCn2ccnc2)cc1	inactive: 2.9%
C[C@@H](NC(=O)C[C@@H]1C[C@@H]2c3cc(NC(=O)c4cccnc4)ccc3O[C@@H]2[C@@H](CO)O1)c1ccccc1	inconclusive: 30%
Cc1ccccc1NC(=O)NCC1CCN(Cc2cccc(Cl)c2)CC1	inconclusive: 31.7%
Cc1ccc(S(=O)(=O)N(C)C[C@H]2OCc3cnnn3CCCC(=O)N([C@@H](C)CO)C[C@@H]2C)cc1	inconclusive: 38.6%
C[C@H](NC(=O)[C@@H]1CCCN1C(=O)[C@@H]1CCCN1C(=O)OC(C)(C)C)c1ccccc1	inconclusive: 37%
COc1ccc(NC(=O)C2(C)CCN2Cc2ccc(OC(C)C)cc2)cc1OC (stereo not given)	inconclusive: 34.6%
Cc1noc(C)c1NC(=O)N(C)C[C@@H]1Oc2c(NS(=O)(=O)c3ccc(Cl)cc3)cccc2C(=O)N([C@@H](C)CO)C[C@@H]1C	inactive: 2.93%
CCOc1ccc(C2C(C(=O)c3cccs3)=C(O)C(=O)N2Cc2cccnc2)cc1OC (stereo not given)	inconclusive: 32.3%
O=[N+]([O-])c1cc([N+](=O)[O-])c(Oc2cc(Cl)cc(Cl)c2)cc1NN1CCCCC1	inconclusive: 22.5%
CC(O)(c1ccc(F)c(F)c1)c1nc(/C=C/c2ccc(C(F)(F)F)cc2)cs1 (stereo not given)	inconclusive: 21.9%
COc1ccc(C=C(C#N)C#N)c(CSc2ccccn2)c1	inconclusive: 21.9%
COC(=O)c1ccc(-c2cc3onc(-c4ccccc4)c3c(=O)n2C)cc1	inconclusive: 73.1%
Cc1onc(-c2ccccc2Cl)c1C(=O)N[C@@H]1C(=O)N2[C@@H]1SC(C)(C)[C@@H]2C(=O)O	inconclusive: 23.6%
CC(Sc1ccccn1)C(=O)Nc1ccc2c(c1)OCCO2 (stereo not given)	active: 26.9%
C[C@H](CO)N1C[C@H](C)[C@H](CN(C)Cc2ccccc2)Oc2ccc(NS(=O)(=O)c3ccccc3)cc2CC1=O	active: 54.6%
CN(C)C(=O)c1ccc(-c2cccc(-c3nc(C(=O)N(C)C)cc4c3[C@H](CCO)N([S@@](=O)C(C)(C)C)C4)c2)cc1	inactive: 5.86%
CCOC(=O)c1c(C)[nH]c(C=O)c1Cc1cccc(Cl)c1	inconclusive: 37.1%

Structure (SMILES)	CPE inhibition
COCC(=O)N1CC2(CN(Cc3cccnc3)C2)c2c(n(C)c3cc(OC)ccc23)[C@@H]1CO	inconclusive: 25%
CCCc1c(O)nc(SCC(=O)N2CCCCC2)[nH]c1=O	inconclusive: 26.9%
C[C@@H]1CCCCO[C@H](CN(C)S(=O)(=O)c2ccc(Cl)cc2)[C@H](C)CN([C@@H](C)CO)C(=O)c2cc(NC(=O)C3CCCCC3)ccc2O1	inconclusive: 21.5%
O=C1CC(C(=O)N(c2ccccc2)C(C(=O)NC2CCCC2)c2ccncc2)CS1 (stereo not given)	inactive: -1.14%
C[C@H](CO)N1C[C@H](C)[C@H](CN(C)CC2CCCCC2)OCCCC[C@H](C)Oc2ccc(NC(=O)NC3CCCCC3)cc2C1=O	inconclusive: 53.6%
COC(=O)[C@H]1[C@H](CO)[C@H]2Cn3c(ccc(C4=CCCC4)c3=O)[C@H]2N1C(=O)C1CC1	inconclusive: 46%
CS(=O)(=O)N1[C@H](CO)[C@@H](c2ccc(C#CC3CC3)cc2)[C@@H]1C#N	active: 26.2%
CCCN(C)C[C@@H]1Oc2cc(-c3cccnc3)ccc2S(=O)(=O)N([C@H](C)CO)C[C@@H]1C	inconclusive: 26.7%
CC(C)Oc1ccc(S(=O)(=O)N2CCOCC2)cc1NC(=O)CSc1nnc(C2CC2)n1C	inconclusive: 31%
CC(=O)Nc1ccc(NC(=O)C(C)OC(=O)C(C)SCC(=O)Nc2ccc(C)cc2)cc1 (stereo not given)	inconclusive: 22.3%
O=C1[C@H](Cc2ccccc2)NCC=CC[C@H](c2ccc(Cl)cc2)N1Cc1ccc(Cl)cc1	inactive: 1.77%
Cc1ccc2nc(-c3ccccc3)c(Cc3cccc(F)c3)n2c1	inconclusive: 49.1%
CCCNC(=O)N1[C@H](CO)[C@H](c2ccccc2)[C@@H]1CNC(=O)c1ccc(F)cc1	active: 104%
CC(C)NC(=O)Nc1cccc2c1O[C@@H](CN(C)C)[C@@H](C)CN([C@H](C)CO)C2=O	inconclusive: 63.3%
Brc1ccc(CNCCCSc2ncccn2)cc1	inconclusive: 22.4%
COc1cc(Cn2c(=O)c3c(OC)c(C)cnc3n(C)c2=O)cc(OC)c1	inconclusive: 23.8%
O=C(COC(=O)/C=C/c1cccc(C(F)(F)F)c1)NCc1ccccc1	inactive: -5.74%
Cc1cccc(C)c1NC(=O)CNC(=O)C12CC3CC(CC(O)(C3)C1)C2	inconclusive: 47.1%
Cc1ccccc1N(CC(=O)NC(C)(C)C)C(=O)CCC(=O)Nc1nccs1	inconclusive: 41%
C[N+](C)(C)C[C@H](O)CC(=O)O	inconclusive: 43.8%
CCCNC(=O)Nc1ccc2c(c1)OC[C@H](C)N(C(=O)C1CC1)C[C@@H](C)[C@@H](OC)CN(C)C2=O	inconclusive: 30.9%
CCOC(=O)C1=CN(CC)S(=O)(=O)NC1c1cccc(OC)c1 (stereo not given)	active: 23.7%
C[C@@H]1CN([C@H](C)CO)C(=O)Cc2cc(NC(=O)CCN3CCOCC3)ccc2O[C@H]1CN(C)S(=O)(=O)c1ccc(Cl)cc1	inactive: 0.914%
O=C(NC[C@@H]1[C@H](c2ccccc2)[C@@H](CO)N1C(=O)Cc1cccnc1)C1CCC1	inconclusive: 15.3%
O=C(Cc1ccccn1)N[C@@H]1CC[C@H](CC(=O)N2CCCCC2)O[C@H]1CO	inconclusive: 30.8%

Structure (SMILES)	CPE inhibition
C=C1N(C)c2cc([N+](=O)[O-])c(N)cc2C1(C)C	inactive: -5.85%
Brc1ccccc1-c1nc2c3ccccc3ncn2n1	inconclusive: 35.2%
CC(=O)Nc1ccc(S(=O)(=O)Nc2cc(Cl)ccc2N2CCOCC2)cc1	inconclusive: 36.8%
C[C@@H]1CCCCO[C@H](CN(C)S(=O)(=O)c2cccs2)[C@H](C)CN([C@@H](C)CO)C(=O)c2cc(NS(=O)(=O)c3ccc(Cl)cc3)ccc2O1	active: 31.4%
O=C(CSc1nc(=O)[nH]c2c1CCCC2)Nc1ccc(F)cc1F	active: 40.7%
C[C@@H]1CN([C@@H](C)CO)C(=O)Cc2cc(NC(=O)C3CC3)ccc2O[C@H]1CN(C)S(=O)(=O)c1ccccc1	active: 33.6%
Cc1ccc(CN2C(=O)C(C)Sc3ccc(C#N)cc32)cc1 (stereo not given)	inconclusive: 55.6%
CCC(=O)N1[C@H](CO)[C@@H]2c3ccccc3N(C(=O)Nc3ccc(Cl)cc3)C[C@@H]21	inconclusive: 25.4%
COc1ccc(C)c2sc(=NC(=O)c3ccc(C(C)=O)cc3)n(C)c12	inconclusive: 25.7%
CCCCCNC(=O)C(c1ccccc1F)n1c(=O)c(-c2ccco2)nc2ccccc21 (stereo not given)	inconclusive: 47.8%
O=C(Nc1ccc(Oc2ccccc2)cc1)c1cnc2n(c1=O)CCS2	inconclusive: 30.1%
Cc1cccnc1NC(=O)c1ccc(S(=O)(=O)N2CCCC2)cc1	active: 64.6%
COC(=O)C1=C(C)N(CC2CC2)C(=NCc2cccc(Cl)c2)N[C@H]1c1ccccc1	inconclusive: 33.5%
CC(C)CC#Cc1ccc([C@@H]2[C@H]3CN(C(=O)Nc4ccccc4)CCCCN3[C@H]2CO)cc1	active: 33.1%
CNC(=O)C[C@H]1CC[C@@H]2[C@@H](COc3ccc(NC(=O)c4ccccc4Cl)cc3C(=O)N2C)O1	active: 30.7%
CC1(C)CCCC2(C)C(OCCO)=CC(=O)C=C12 (stereo not given)	inconclusive: 26%
C[C@H]1CN([C@@H](C)CO)S(=O)(=O)c2ccc(C3=CCCC3)cc2O[C@@H]1CN(C)C(=O)Cc1ccncc1	active: 30.8%
COc1ccc(N(C(=O)c2snc(C(N)=O)c2N)C(C(=O)NC2CCCC2)c2ccc(F)cc2)c(OC)c1 (stereo not given)	inconclusive: 44.8%
CC(CN1CCCC1)OC(=O)c1ccccc1Cl (stereo not given)	inconclusive: 35.7%
CCCc1cc(=O)[nH]c(SCC(=O)Nc2ccc(OCc3ccccc3)cc2)n1	inactive: -2.9%
CCOC(=O)C(Cc1ccnc2ccccc12)=NO	inactive: -2.2%
O=C(Nc1ccc(Cl)cc1)NN1CCCCCC1	inactive: -3.66%
NC(=O)c1cc([N+](=O)[O-])c(Cl)cc1NCc1ccccn1	inconclusive: 45.6%
COc1ccc(NC(=O)Nc2ccc3c(c2)C(=O)N([C@@H](C)CO)C[C@@H](C)[C@H](CN(C)S(=O)(=O)c2cn(C)cn2)OCCCC[C@H](C)O3)cc1	inconclusive: 23%
COc1ccc(S(=O)(=O)Nc2ccc3c(c2)N(C(C)=O)CCC3)cc1OC	inconclusive: 27.7%

An excerpt taken from the entries so far:
Structure (SMILES)	CPE inhibition
C[C@H]1CN([C@@H](C)CO)S(=O)(=O)c2ccc(C3=CCCC3)cc2O[C@@H]1CN(C)C(=O)Cc1ccncc1	active: 30.8%
COc1ccc(N(C(=O)c2snc(C(N)=O)c2N)C(C(=O)NC2CCCC2)c2ccc(F)cc2)c(OC)c1 (stereo not given)	inconclusive: 44.8%
CC(CN1CCCC1)OC(=O)c1ccccc1Cl (stereo not given)	inconclusive: 35.7%
